The list shows a part of the results, in another mix than the full data. At the low end of the ranking the order means little.
Columns and labels:
ETV3 = target: T1, ETV3 (UniProt P41162-2); assay: DAPPL (digital affinity profiling via proximity ligation, sequencing); details: 10 mM Tris-HCl pH 7.5, 50 mM NaCl, 1 mM DTT, 4% glycerol, room temperature, 30 min; GST-TFs on glutathione beads, 16-mer random dsDNA library, 0.1% …; high values mean tight binding; double strand, one strand shown; scale: fold enrichment (6-mer frequency, TF over GST control)
T1 sequence: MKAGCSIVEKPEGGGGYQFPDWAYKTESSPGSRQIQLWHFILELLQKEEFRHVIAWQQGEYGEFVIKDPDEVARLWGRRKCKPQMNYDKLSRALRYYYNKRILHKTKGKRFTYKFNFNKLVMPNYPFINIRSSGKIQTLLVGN

ELK3 = target: T2, ELK3 (UniProt P41970); assay: as above; details: 10 mM Tris-HCl pH 7.5, 50 mM NaCl, 1 mM DTT, 4% glycerol, room temperature, 30 min; GST-TFs on glutathione beads, 16-mer random dsDNA library, 0.1% …; high values mean tight binding; double strand, one strand shown; scale: fold enrichment (6-mer frequency, TF over GST control)
T2 sequence: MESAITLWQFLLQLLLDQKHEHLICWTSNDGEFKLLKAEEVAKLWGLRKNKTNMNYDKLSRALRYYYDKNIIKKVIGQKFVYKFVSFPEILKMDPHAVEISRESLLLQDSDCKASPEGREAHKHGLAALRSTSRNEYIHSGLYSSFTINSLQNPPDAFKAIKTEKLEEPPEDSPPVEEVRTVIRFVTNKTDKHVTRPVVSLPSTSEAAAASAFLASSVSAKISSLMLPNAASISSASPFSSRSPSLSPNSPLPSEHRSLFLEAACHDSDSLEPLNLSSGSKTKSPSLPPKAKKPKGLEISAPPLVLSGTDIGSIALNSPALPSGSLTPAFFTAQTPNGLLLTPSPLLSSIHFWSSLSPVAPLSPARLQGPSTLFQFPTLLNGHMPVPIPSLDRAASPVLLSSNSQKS

| Sequence | binding signal (ETV3) | binding signal (ELK3) |
| --- | --- | --- |
| AACTCT | 1.34 | – |
| TCCGTT | 1.58 | 1.54 |
| GCAGCT | 0.973 | 0.959 |
| ATTTTA | 1.26 | – |
| GTATGG | 0.978 | 0.951 |
| AGATGA | 1.1 | 1.14 |
| ATTCGA | 1.22 | 1.25 |
| GCCCGA | 1.04 | 0.935 |
| ACCCGA | 1.05 | 0.99 |
| TCGTCA | 0.99 | 0.975 |
| GTTGCT | 1.51 | 1.25 |
| GTTACA | 1.09 | 1.24 |
| AAAGGG | 1.18 | 1.1 |
| TTGTTC | 1.52 | 1.39 |
| CACTAG | 0.963 | 0.931 |
| CAAATG | 1.13 | 1.09 |
| GCAATA | 1.04 | 1 |

An excerpt of the results above, for reference:

| Sequence | binding signal (ETV3) | binding signal (ELK3) |
| --- | --- | --- |
| ATTCGA | 1.22 | 1.25 |
| GCCCGA | 1.04 | 0.935 |
